For part of these data: For expression read-outs the peptide stands for its source gene, whose mRNA was measured; the gene is not named for every peptide.
Experiments:
HLA-A*24 = test: Identification and relative LC-MS quantitation of HLA-A*24-presented tumor-associated peptides on tissue samples (presentation profiles, Tables 14A, 14B, 16, FIG. 1); design: species or system human; key to Presentation score GC / Presentation score NSCLC / Presentation score PCA / Presentation score GB / Presentation score HCC / Presentation score RCC: specifically presented on tumors (++++); very highly over-presented on tumors compared to a panel of normal tissues (+++); highly over-presented on tumors compared to a panel of normal tissues (++); over-presented on tumors compared to a panel of normal tissues (+)
source genes (mRNA) [1] = test: Gene and exon expression of source genes, TCGA tumor samples compared with normal tissue samples (Lonsdale, 2013) (Table 17); design: species or system human
source genes (mRNA) [2] = test: Expression profiling of source genes by in-house RNASeq of tumor and normal tissues (Table 18, FIG. 2); design: species or system human; key: very highly over-expressed in tumors compared to a panel of normal tissues (+++); highly over-expressed in tumors compared to a panel of normal tissues (++); over-expressed in tumors compared to a panel of normal tissues (+); settings: source gene of peptide
[3] = FIG. 1, A*24 positive samples, only samples with presentation shown

Q: How did the “number of cancer tissues where the peptide was found to be presented” value (HLA-A*24; [3]) turn out when “288: peptide found in NUP210 (gene looked up) (VYVSDIQEL; listed as Homo sapiens) [compound 288]” was run?
A: 21

Q: What about the “number of normal tissues where the peptide was found to be presented” value (HLA-A*24; [3]) of the same substance?
A: 2

Q: And the “Presentation score GC” value (HLA-A*24; HLA-A*24 peptides, gastric cancer (N = 44) vs panel of normal tissues (N = 70))?
A: +

Q: What about the “Presentation score HCC” value (HLA-A*24; HLA-A*24 peptides, hepatocellular carcinoma (N = 15) vs panel of normal tissues (N = 70)) of the same substance?
A: +

Q: What about the “Presentation score NSCLC” value (HLA-A*24; HLA-A*24 peptides, non-small cell lung cancer (N = 91) vs panel of normal tissues (N = 70)) of the same substance?
A: +

Q: What about the “Peptide Presentation on cancer entities” value (HLA-A*24; Table 14A, HLA-A*24-binding tumor-associated peptides, cancer entities on which the peptide was found presented) of the same substance?
A: GC, NSCLC, HCC, PCA

Q: What about the “Target coverage: over-expression category of source gene, LAML” value (source genes (mRNA) [1]; Acute Myeloid Leukemia (N = 173), tumor expression more than 2-fold above highest 75% percentile of high and medium risk normal tissues) of the same substance?
A: A (>=50% of tumors above the cutoff)

Q: What about the “Target coverage: over-expression category of source gene, BLCA” value (source genes (mRNA) [1]; Bladder urothelial carcinoma (N = 408), tumor expression more than 2-fold above highest 75% percentile of high and medium risk normal tissues) of the same substance?
A: C (>=5% of tumors above the cutoff, but <20%)

Q: And the “Target coverage: over-expression category of source gene, BRCA” value (source genes (mRNA) [1]; Breast cancer (N = 1104), tumor expression more than 2-fold above highest 75% percentile of high and medium risk normal tissues)?
A: C (>=5% of tumors above the cutoff, but <20%)

Q: What about the “Target coverage: over-expression category of source gene, READ” value (source genes (mRNA) [1]; Colon and rectal adenocarcinoma (N = 167), tumor expression more than 2-fold above highest 75% percentile of high and medium risk normal tissues) of the same substance?
A: C (>=5% of tumors above the cutoff, but <20%)

Q: What about the “Target coverage: over-expression category of source gene, COAD” value (source genes (mRNA) [1]; Colon and rectal adenocarcinoma (N = 462), tumor expression more than 2-fold above highest 75% percentile of high and medium risk normal tissues) of the same substance?
A: C (>=5% of tumors above the cutoff, but <20%)

Q: And the “Target coverage: over-expression category of source gene, ESCA” value (source genes (mRNA) [1]; Esophageal cancer (N = 185), tumor expression more than 2-fold above highest 75% percentile of high and medium risk normal tissues)?
A: B (>= 20% of tumors above the cutoff, but <50%)

Q: What about the “Target coverage: over-expression category of source gene, LUAD” value (source genes (mRNA) [1]; Lung adenocarcinoma (N = 517), tumor expression more than 2-fold above highest 75% percentile of high and medium risk normal tissues) of the same substance?
A: C (>=5% of tumors above the cutoff, but <20%)

Q: What about the “Target coverage: over-expression category of source gene, LUSC” value (source genes (mRNA) [1]; Lung squamous cell carcinoma (N = 503), tumor expression more than 2-fold above highest 75% percentile of high and medium risk normal tissues) of the same substance?
A: C (>=5% of tumors above the cutoff, but <20%)

Q: And the “Target coverage: over-expression category of source gene, DLBC” value (source genes (mRNA) [1]; Lymphoid neoplasm diffuse large B-cell lymphoma (N = 48), tumor expression more than 2-fold above highest 75% percentile of high and medium risk normal tissues)?
A: B (>= 20% of tumors above the cutoff, but <50%)

Q: And the “Target coverage: over-expression category of source gene, OV” value (source genes (mRNA) [1]; Ovarian serous cystadenocarcinoma (N = 309), tumor expression more than 2-fold above highest 75% percentile of high and medium risk normal tissues)?
A: B (>= 20% of tumors above the cutoff, but <50%)

Q: And the “Target coverage: over-expression category of source gene, SKCM” value (source genes (mRNA) [1]; Skin cutaneous melanoma (N = 473), tumor expression more than 2-fold above highest 75% percentile of high and medium risk normal tissues)?
A: C (>=5% of tumors above the cutoff, but <20%)

Q: What about the “Target coverage: over-expression category of source gene, STAD” value (source genes (mRNA) [1]; Stomach adenocarcinoma (N = 415), tumor expression more than 2-fold above highest 75% percentile of high and medium risk normal tissues) of the same substance?
A: C (>=5% of tumors above the cutoff, but <20%)

Q: What about the “Target coverage: over-expression category of source gene, UCEC” value (source genes (mRNA) [1]; Uterine corpus endometrial carcinoma (N = 546), tumor expression more than 2-fold above highest 75% percentile of high and medium risk normal tissues) of the same substance?
A: C (>=5% of tumors above the cutoff, but <20%)

Q: What about the “Expression score AML” value (source genes (mRNA) [2]; acute myeloid leukemia (N = 11) vs panel of normal tissues) of the same substance?
A: ++

Q: And the “Expression score CLL” value (source genes (mRNA) [2]; chronic lymphocytic leukemia (N = 10) vs panel of normal tissues)?
A: +

Q: What about the “Expression score OSCAR” value (source genes (mRNA) [2]; esophageal cancer incl. gastric-esophageal junction (N = 11) vs panel of normal tissues) of the same substance?
A: +

Q: And the “Expression score NHL” value (source genes (mRNA) [2]; non-Hodgkin lymphoma (N = 10) vs panel of normal tissues)?
A: ++

Q: And the “Expression score NSCLC” value (source genes (mRNA) [2]; non-small cell lung cancer (N = 11) vs panel of normal tissues)?
A: +

Q: What about the “Expression score OC” value (source genes (mRNA) [2]; ovarian cancer (N = 12) vs panel of normal tissues) of the same substance?
A: +

Q: What about the “Expression score SCLC” value (source genes (mRNA) [2]; small cell lung cancer (N = 10) vs panel of normal tissues) of the same substance?
A: +

Q: Which results are given for “188: peptide found in DCLK2 (gene looked up) (RYFKGLVF; listed as Homo sapiens) [compound 188]”?
A: Presentation score GB (HLA-A*24; HLA-A*24 peptides, glioblastoma (N = 18) vs panel of normal tissues (N = 70)): ++++; Over-expression category of source gene (target coverage), GBM (source genes (mRNA) [1]; GBM = Glioblastoma multiforme (N = 169), same cutoff): A (>=50% of tumors above the cutoff); Over-expression category of source gene (target coverage), LGG (source genes (mRNA) [1]; LGG = Lower grade glioma (N = 534), same cutoff): A (>=50% of tumors above the cutoff); Expression score GB (source genes (mRNA) [2]; glioblastoma (N = 24) vs panel of normal tissues): +++
